Reference: PubChem BioAssay AID1671190 (National Center for Advancing Translational Sciences (NCATS), 2021)
Screen size: about 580,000 compounds; about 6,100 (1.1%) were called active. Inconclusive means that the source gave no clear call. Such entries were picked first, then a sample of the others. The call rests on the fitted dose curve; in most records, active means well fitted inhibition curve with a large enough effect; inconclusive means small, poorly fitted or top-dose-only effect, or another doubt; inactive means no such curve, though single readings can be large or run the other way. A potency beside an inconclusive call is a rough fit, not a confirmed value.

Amino acid sequences for entries named in this document (tags omitted). A change or cut given only in a name is not applied to a line headed by its entry.
UniProt P18054: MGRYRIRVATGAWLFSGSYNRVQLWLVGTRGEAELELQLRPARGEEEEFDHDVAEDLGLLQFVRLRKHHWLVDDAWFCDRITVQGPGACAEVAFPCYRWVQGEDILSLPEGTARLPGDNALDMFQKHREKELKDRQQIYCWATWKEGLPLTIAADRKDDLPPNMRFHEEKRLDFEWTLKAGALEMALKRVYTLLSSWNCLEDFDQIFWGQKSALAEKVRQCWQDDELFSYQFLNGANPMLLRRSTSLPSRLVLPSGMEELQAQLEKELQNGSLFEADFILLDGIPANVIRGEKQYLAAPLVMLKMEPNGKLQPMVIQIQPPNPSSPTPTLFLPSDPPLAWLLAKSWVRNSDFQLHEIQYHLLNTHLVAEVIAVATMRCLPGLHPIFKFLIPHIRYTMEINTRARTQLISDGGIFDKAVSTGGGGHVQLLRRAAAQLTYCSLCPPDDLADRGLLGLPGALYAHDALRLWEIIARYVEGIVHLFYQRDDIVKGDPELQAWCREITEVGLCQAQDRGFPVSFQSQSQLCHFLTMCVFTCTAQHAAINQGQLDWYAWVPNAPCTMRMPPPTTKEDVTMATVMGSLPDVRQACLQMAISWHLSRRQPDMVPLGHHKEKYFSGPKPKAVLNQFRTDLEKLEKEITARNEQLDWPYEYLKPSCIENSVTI

Each compound was assayed against Polyunsaturated fatty acid lipoxygenase ALOX12 (Homo sapiens) (UniProt P18054) (assay: Primary qHTS assay for inhibitors of human arachidonate 12S-lipoxygenase (ALOX12): Round 2). Settings: purified 12hLO, xylenol orange hydroperoxide absorbance; series mostly up to 108 µM.
Summary of the method: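 Hydroperoxide product was detected by ferrous iron/xylenol orange as the 573 to 405 nm absorbance ratio. Arachidonic acid at 40 uM (final) was turned over for 30 min at room temperature by 150 nM human 12hLO, pH 7.0 Hepes buffer, after 15 min compound preincubation.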
Potency means the concentration at half of the fitted maximal effect.

| Structure (SMILES) | Potency |
| --- | --- |
| O=C(CCCN1C(=O)/C(=C\c2cccs2)SC1=S)Nc1ccccn1 | inactive |
| O=C(O)C[C@@H]1CCN(C(=O)C2CC2)C[C@@H]1CCN1CCN(c2ccccn2)CC1 | inconclusive: 44.7 µM [inhibitor, full curve, poor fit] |
| Cc1c(CCC(=O)Nc2nc3ccccc3[nH]2)c(=O)oc2cc(O)ccc12 | inactive |
| O=C(NCCC(c1ccccc1)c1ccccc1)c1cncc(Br)c1 | inconclusive: 5.62 µM [inhibitor, full curve, poor fit] |
| CCCCn1c(SCC(=O)c2c(N)n(C3CC3)c(=O)[nH]c2=O)nc2cc(S(N)(=O)=O)ccc21 | inconclusive: 44.7 µM [inhibitor, partial curve, poor fit] |
| COc1ccc(CN2CCC[C@]3(N[C@H](c4ccc(C)cc4)[C@@H]4C(=O)N(C)C(=O)[C@@H]43)C2=O)cc1 | inconclusive: 126 µM [inhibitor, single point] |
| COc1cccc(C(=O)N(C)Cc2ccc(-c3ccccc3)cc2)c1 | inconclusive: 112 µM [inhibitor, single point] |
| C=CCn1c(C)csc1=Nc1ccc(C(C)=O)cc1 | inactive |
| O=C(NC1CCCCC1)Oc1cccc2ccccc12 | inconclusive: 112 µM [inhibitor, partial curve, poor fit] |
| Cc1cccc(NS(=O)(=O)c2cccc(C(=O)NCC(c3ccc(F)cc3)N3CCOCC3)c2)c1 (stereo not drawn) | inconclusive: 112 µM [inhibitor, single point] |
| O=C(Nc1ccccc1)N1CCN(c2ccc(C(F)(F)F)cn2)CC1 | inactive |
| O=C(C1CC1)N1C[C@@H]2OCC(=O)N(Cc3cccnc3)[C@@H]2C1 | inactive |
| COc1ccc(/C=C/C(=O)Nc2cc(C)nn2-c2nc3ccccc3n2Cc2cccc([N+](=O)[O-])c2)cc1 | inactive |
| C=CCOc1cccc(C2C(C(=O)c3ccc(C)o3)=C(O)C(=O)N2c2nccs2)c1 (stereo not drawn) | inconclusive: 25.1 µM [inhibitor, partial curve] |
| O=C(NC1CCCCCCC1)c1ccc2c(c1)OCO2 | inactive |
| CNC(=O)CSc1nnc(NC(=O)Nc2ccccc2)s1 | inconclusive: 44.7 µM [inhibitor, partial curve, poor fit] |
| CC1(C)CC(=O)C2=C(C1)NC1=C(C(=O)c3ccccc31)C2c1cccc(Cl)c1 (stereo not drawn) | inconclusive: 44.7 µM [inhibitor, partial curve, poor fit] |
| Cc1ccccc1N1C(=O)c2cc(-c3ccco3)nn2CC1(C)C(=O)NC1CCCCC1 (stereo not drawn) | inconclusive: 10 µM [inhibitor, full curve] |

2 compounds drawn at random from those above, as already listed:

| Structure (SMILES) | Potency |
| --- | --- |
| O=C(NC1CCCCCCC1)c1ccc2c(c1)OCO2 | inactive |
| C=CCn1c(C)csc1=Nc1ccc(C(C)=O)cc1 | inactive |
